Reference: the supplement of paper PMC8497498
± gives the standard deviation of the averaged measurements. The list shows a part of the results. The data scatter; read single values as rough.

Assays:
Details in all cases: 10 µM
[1] = system: Plasmodium vivax liver stage (primary human hepatocyte culture); assay: hypnozoite quantity inhibition (% inhibition); higher = more active against hypnozoites
[2] = system: Plasmodium vivax liver stage (primary human hepatocyte culture); assay: schizont net growth area inhibition (% inhibition); higher = more active against liver schizonts
[3] = system: primary human hepatocytes; assay: hepatic nuclei reduction relative to DMSO (100 - % of negative control); higher = more toxic to hepatocytes
[4] = assay mode: Prophylactic (treated before or shortly after infection), fixed day 6 post-infection
[5] = assay mode: Radical Cure (treated from day 5 post-infection for 3 days), fixed day 8 post-infection

SMILES | hypnozoite quantity inhibition [1, 4] | hypnozoite quantity inhibition [1, 5] | schizont net growth area inhibition [2, 4] | schizont net growth area inhibition [2, 5] | hepatic nuclei reduction [3, 4] [%] | hepatic nuclei reduction [3, 5] [%]
CCCCCCc1cc(O)c2c3c(c(=O)oc2c1)CCC(C)C3 (configuration not stated) | 7.6 | 29.2 | 5.3 | -24.4 | -4 | 1
CC1CC(C)C(=O)C(C(O)CC2CC(=O)NC(=O)C2)C1 (configuration not stated) | 80 | -20.4 ± 73 | 102 | 96.4 ± 0.57 | -10 | 21 ± 23
O=C1O[C@@H](COc2ccon2)CN1c1cc(F)c(C2=CCN(Cc3ccccc3)CC2)c(F)c1 | 21 | 12 | -102 | 14.4 | -7 | -9
Cc1nn(Cc2ccccc2)c(Cl)c1C(=O)NC1CCCCCC1 | 11 | -4 | -2.7 | -152 | -4 | 1
Cc1cc(C2=NOC(c3cc(Cl)c(F)c(Cl)c3)(C(F)(F)F)C2)ccc1C(=O)NCc1ccc2c(c1)C(C)(C)OB2O (configuration not stated) | 15 | 1 | 30 | -162 | -6 | -12
Oc1ccc(C(=C(Cl)Cl)c2ccc(O)cc2)cc1 | -27.3 | 49.6 | 17.3 | 18.9 | -5 | 1
COc1ccc(CN2CCN(Cc3ccccc3)CC2)c(O)c1 | 31.6 | -6.2 | 37.8 | -64.2 | -5 | -2
CC(C)(N)CNC(=O)CC1CCC2(CC1)OOC1(O2)C2CC3CC(C2)CC1C3 (configuration not stated) | -31 | 26 | 72.2 | 5.8 | 0 | -1
CCOc1cc(CNC(C)C(O)c2ccccc2)cc(Cl)c1OCC (configuration not stated) | -56.3 | 19.8 | -15.1 | 56.8 | -2 | -4
O=C(CCc1ccco1)NC1CCN(CC2(c3ccc(Cl)cc3)CCC2)CC1 | 4.4 | -11.7 | -65.3 | -30 | -5 | -4
CO[C@@H]1CN(c2ccc(C#CC3(O)CN4CCC3CC4)c(Cc3ccccc3)n2)C[C@H]1O (some centres not stated) | -15 | 14 | -26.2 | 53.2 | -1 | -1
CO/N=C(\C(=O)OC)c1ccccc1CO/N=C(\C)c1cccc(C(F)(F)F)c1 | -28 | -10 | -6 | 40.2 | -8 | 1
CC1CCC2C(C)C(N3CCS(=O)(=O)CC3)OC3OC4(C)CCC1C32OO4 (configuration not stated) | -55 | 12 | -58.2 | -0.7 | -11 | -2
Cc1cccc(C(=O)Nc2ccnc(N(C)C3CCN(CC(C)C)CC3)c2)c1 | -21 | -44 | 60.2 | -14 | 0 | 0
CC1COC(Cn2cncn2)(c2ccc(Oc3ccc(Cl)cc3)cc2Cl)O1 (configuration not stated) | -3 | 14 | -2.6 | -159 | -12 | -7
CC1CCC2C(C)C(=O)OC3OC4(C)CCC1C32OO4 (configuration not stated) | -55 | 34 | 18.4 | 50.2 | -20 | -1

SMILES | hypnozoite quantity inhibition [1, 4] | hypnozoite quantity inhibition [1, 5] | schizont net growth area inhibition [2, 4] | schizont net growth area inhibition [2, 5] | hepatic nuclei reduction [3, 4] [%] | hepatic nuclei reduction [3, 5] [%]
CC1(C)OB(O)c2ccc(C3=NOC(c4cc(Cl)c(F)c(Cl)c4)(C(F)(F)F)C3)cc21 (configuration not stated) | 46 | -28 | 26.4 | -96.9 | 3 | -5
CCc1nn(C)c(C(=O)NCc2ccc(Oc3ccc(C)cc3)cc2)c1Cl | -144 | 11 | 97.1 | 8.3 | 2 | 0
CCOc1c(Cl)cc(CNC(C)C(O)c2ccccc2)cc1OC (configuration not stated) | -3.5 | 47.3 | -9.7 | 49.8 | -14 | 1
c1cc(C2CCC3(CC2)OOC2(O3)C3CC4CC(C3)CC2C4)ccc1OCCN1CCOCC1 (configuration not stated) | -22 | 26 | -1.3 | 28 | -5 | -2
CN(N=O)C1=C(NC2CCCCC2)C(=O)c2ccccc2C1=O | 12.1 | 29 | -54.4 | -25.2 | -18 | 0
COc1cc(CNCCc2ccc(Cl)cc2)cc(OC)c1O | 11.4 | -52.5 | 40 | -34 | -1 | -12
Nc1c2c(nc3sc4c(c13)CCCC4)CCCC2 | -3 | -23 | 38.2 | -6.9 | -1 | 3
COc1ccccc1CN[C@H]1C2CCN(CC2)[C@H]1C(c1ccccc1)c1ccccc1 | 3 | 7 | 21.2 | -64.1 | -3 | 1
Oc1ccc(Br)cc1CN1CCN(Cc2ccc(Cl)cc2)CC1 | 1.9 | 4.7 | 8.1 | -24.2 | -1 | -7
CC12CCC3C(CC=C4CC(OS(=O)(=O)O)CCC43C)C1CCC2=O (configuration not stated) | -3 | 34 | 27.7 | 52.4 | -7 | 1
CO/C=C(/C(=O)OC)c1ccccc1Oc1cc(Oc2ccccc2C#N)ncn1 | 11 | -2 | 37.2 | -50.7 | 5 | -2
O=C1O[C@@H](CO)CN1c1cc(F)c(C2=CCN(Cc3ccccc3)CC2)c(F)c1 | -19 | 16 | -20 | -6.4 | -5 | -2
Oc1ccc(Br)cc1CN1CCN(Cc2cccc(F)c2)CC1 | -41.4 | 38.2 | -63.2 | 15.4 | -8 | 4
CCCc1cc(O)c2c3c(c(=O)oc2c1)CN(C)CC3 | -58.6 | 35.9 | -13.4 | 43.8 | -6 | -2
CC(C)(C)C(O)C(Oc1ccc(-c2ccccc2)cc1)n1cncn1 (configuration not stated) | -55 | -10 | -30.7 | -190 | -10 | -2
Cc1nn(C)c(C)c1NS(=O)(=O)c1c(Cl)cc(-c2ccnc(N3CCNCC3)c2)cc1Cl | -35 | -4 | 102 | -89.7 | -4 | -5

Filtered by structure, the compounds so far with bromine.
SMILES | hypnozoite quantity inhibition [1, 4] | hypnozoite quantity inhibition [1, 5] | schizont net growth area inhibition [2, 4] | schizont net growth area inhibition [2, 5] | hepatic nuclei reduction [3, 4] [%] | hepatic nuclei reduction [3, 5] [%]
Oc1ccc(Br)cc1CN1CCN(Cc2ccc(Cl)cc2)CC1 | 1.9 | 4.7 | 8.1 | -24.2 | -1 | -7
Oc1ccc(Br)cc1CN1CCN(Cc2cccc(F)c2)CC1 | -41.4 | 38.2 | -63.2 | 15.4 | -8 | 4
